Reference: PMC8053111, “MKRN3-mediated ubiquitination of Poly(A)-binding proteins modulates the stability and translation of GNRH1 mRNA in mammalian puberty” (Nucleic Acids Research, 2021)
Results are given in words; binding and its absence hold for the method and conditions named. Binding calls can cover weak binding; strength is not graded here. Tags and fused reporters may be left off the sequences shown.

Molecular target: T1, recombinant Gst-tagged MKRN3 (human) (UniProt Q13064)
T1 sequence: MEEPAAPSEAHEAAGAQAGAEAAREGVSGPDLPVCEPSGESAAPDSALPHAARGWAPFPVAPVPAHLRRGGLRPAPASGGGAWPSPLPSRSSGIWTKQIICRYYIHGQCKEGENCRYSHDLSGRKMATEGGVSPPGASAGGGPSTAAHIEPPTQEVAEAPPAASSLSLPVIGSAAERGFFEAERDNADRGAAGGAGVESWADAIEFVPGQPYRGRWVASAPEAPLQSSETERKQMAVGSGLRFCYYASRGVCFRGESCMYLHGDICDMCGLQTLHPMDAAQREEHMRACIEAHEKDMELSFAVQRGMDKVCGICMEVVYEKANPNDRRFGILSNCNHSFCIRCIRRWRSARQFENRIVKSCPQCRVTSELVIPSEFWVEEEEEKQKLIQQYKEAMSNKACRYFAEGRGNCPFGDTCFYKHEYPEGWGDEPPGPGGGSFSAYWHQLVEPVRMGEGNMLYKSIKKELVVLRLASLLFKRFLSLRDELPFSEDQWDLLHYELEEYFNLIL
Test: pull-down; GST pull-down: 20 μg purified Gst-MKRN or MKRN3 truncation, 20 μg PABP-His6 or truncation and Glutathione Sepharose 4B, 4°C overnight in 500 μl of 20 mM Tris-Cl, 100 mM NaCl, 5 mM MgCl2, 1 mM EDTA, 1 mM DTT, 0.5% NP-40, 10 μg/ml BSA, pH 7.5; five washes; Coomassie staining and anti-His immunoblot; both purified

“C-terminal region of PABPC1 (His6-tagged fragment) (human) (domain or fragment)” was tested, and the binding was “binds”.
